# Assay results as given in PubChem BioAssay AID720504 (National Center for Advancing Translational Sciences (NCATS), 2013).
# Protein sequences, listed by entry. Tags and fused reporters are not part of them.
# UniProt P53350, whole entry, looked up: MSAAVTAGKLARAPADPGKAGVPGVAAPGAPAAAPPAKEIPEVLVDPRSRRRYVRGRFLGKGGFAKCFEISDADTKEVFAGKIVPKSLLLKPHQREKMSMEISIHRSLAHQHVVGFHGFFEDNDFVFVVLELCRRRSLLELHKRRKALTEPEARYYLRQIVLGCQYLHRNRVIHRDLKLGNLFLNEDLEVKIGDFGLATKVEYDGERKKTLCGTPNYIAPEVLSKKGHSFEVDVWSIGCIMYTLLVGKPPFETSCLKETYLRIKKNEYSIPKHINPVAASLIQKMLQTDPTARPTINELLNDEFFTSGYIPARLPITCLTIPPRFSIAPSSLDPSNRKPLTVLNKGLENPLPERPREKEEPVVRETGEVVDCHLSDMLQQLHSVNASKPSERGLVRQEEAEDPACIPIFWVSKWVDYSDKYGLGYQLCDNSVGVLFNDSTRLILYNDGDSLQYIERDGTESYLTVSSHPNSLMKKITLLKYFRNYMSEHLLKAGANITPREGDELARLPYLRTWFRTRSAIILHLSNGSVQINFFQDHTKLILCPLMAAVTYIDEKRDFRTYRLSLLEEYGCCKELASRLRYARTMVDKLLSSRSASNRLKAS
# “And” between values parts separate entries of the source, which are not always exact repeats. Equal entries are not always repeated. Screen size: about 360,000 compounds; about 10,000 (2.8%) were called active. Inconclusive means that the source gave no clear call. Such entries were picked first, then a sample of the others. Calls follow the shape of the dose curve; as a rule, active = well fitted inhibition curve with a large enough effect; inconclusive = small, poorly fitted or top-dose-only effect; inactive = flat fitted curve, though single readings scatter. Potencies beside an inconclusive call are fits to weak or partial responses and may not hold up.
# Target: Serine/threonine-protein kinase PLK1 (Homo sapiens) (UniProt P53350)
# Test: qHTS for Inhibitors of PLK1-PDB (polo-like kinase 1 - polo-box domain): Primary Screen; also: nearly all actives have a fitted effect of over 65% in size; as to max response, negative = inhibition: series mostly up to about 57 µM
# Settings: Plk1 PBD binding of FITC phosphopeptide, fluorescence polarization
# % is scaled to controls: 0 for no effect and ±100 for the full control effect; potency is read from the fitted curve at half-maximal effect.
Structure (SMILES),Potency,"max response, negative = inhibition"
CCC1CC2(C)NC(=O)c3c(sc4c3CC(C)(C)OC4)N2C1=O (centres undefined),active: 11.9 µM,
Nc1ncnc2oc(-c3ccco3)c(-c3ccco3)c12,"inconclusive: 37.7 µM [inhibitor, single point]",
O=C(c1ccccc1)c1c(O)nc(-c2ccccc2)n(-c2ccccc2)c1=O,,inactive: -0.562%
O=C(Nc1ccc(O)cc1)c1cc2ccccc2c(=O)s1,,inactive: -3.39%
CCOC(=O)CC1=NN(c2ccccc2)C(=O)C1,"inconclusive: 26.7 µM [inhibitor, single point]",
CCCCC(CCC(=O)O)(C(=O)OCC)c1csc(Nc2ccccc2)n1 (centres undefined),"inconclusive: 18.9 µM [inhibitor, partial curve]",
CC(C)(C)c1ccc(C(=O)N/C(=C\c2cccc([N+](=O)[O-])c2)C(=O)Nc2cccc(C(=O)O)c2)cc1,"inconclusive: 23.8 µM [inhibitor, single point]",
CCCCCCCCOc1ccc(C(=O)O)cc1,"inconclusive: 37.7 µM [inhibitor, single point]",
Nc1ccc2c(c1Cl)C(=O)c1ccc(N)c(Cl)c1C2=O,"inconclusive: 26.7 µM [inhibitor, partial curve]",
O=C1NC[C@H](CCCCN2CCN(CCc3ccccc3)C(=O)C2=O)N(CC2CCCCC2)C1=O,,inactive: -4.62%
COc1cc(N=Nc2ccc(C(=O)N(C)C)cc2)c(C)cc1N,,inactive: 5.53%
CCC(C)NS(=O)(=O)c1ccc(S(=O)(=O)N2CC=C(c3ccc(F)cc3)CC2)cc1 (centres undefined),"inconclusive: 26.7 µM [inhibitor, partial curve]",
CCOC(=O)CSc1nnc(NCC(=O)OC(C)C)c(=O)[nH]1,"inconclusive: 18.9 µM [inhibitor, partial curve]",
CCCOc1ccc(C(=O)NNC(=S)NC(=O)c2ccccc2)cc1,,inactive: -20.6%
O=C(Nc1ccc(N2CCOCC2)cc1)Nc1ccc2nc(-c3ccco3)c(-c3ccco3)nc2c1,"inconclusive: 67 µM [inhibitor, partial curve] and inconclusive: 42.3 µM [inhibitor, partial curve]",
O=S(=O)(c1ccccc1)N(F)S(=O)(=O)c1ccccc1,active: 26.7 µM,
CCN1C(=O)c2cccc3cccc1c23,active: 21.2 µM,
CC1CCC(C(C)C)C(OC(=O)Cn2nnc3c(cnn3-c3ccccc3)c2=O)C1 (centres undefined),"inconclusive: 18.9 µM [inhibitor, partial curve, poor fit]",
CCOC(=O)COc1ccc2c(C)cc(=O)oc2c1C(=O)c1ccccc1,active: 21.2 µM,

# 2 entries from above, as tab-separated lines:
Structure (SMILES)	Potency	max response, negative = inhibition
CCC1CC2(C)NC(=O)c3c(sc4c3CC(C)(C)OC4)N2C1=O (centres undefined)	active: 11.9 µM	
Nc1ncnc2oc(-c3ccco3)c(-c3ccco3)c12	inconclusive: 37.7 µM [inhibitor, single point]	
